# Laboratory results taken from the supplement of paper PMC8728848.
# This is one part of the list.
# Columns and labels:
# Test in all cases: glycan array binding signal (z-score within array); higher = stronger binding
# Conditions in all cases: glycan notation: IUPAC condensed, linker removed
# [1] = molecular target: Neu5Ac(a2-3)Gal(b1-4)GlcNAc
# Summary of the method: (§1)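 Columns mapping to the same glycan were averaged after glycan names were converted to IUPAC-condensed notation. The data come from 3228 arrays in the Consortium for Functional Glycomics database, limited to those with an available protein sequence. Binding is reported as a within-array Z-score averaged across arrays of one protein sequence and across linkers.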
# [2] = molecular target: Neu5Ac(a2-3)Gal(b1-4)GlcNAc(b1-2)Man
# Summary of the method: as §1
# [3] = molecular target: Neu5Ac(a2-3)Gal(b1-4)GlcNAc(b1-2)Man(a1-3)[GlcNAc(b1-4)][Neu5Ac(a2-3)Gal(b1-4)GlcNAc(b1-2)Man(a1-6)]Man(b1-4)GlcNAc(b1-4)GlcNAc
# Summary of the method: as §1
# [4] = molecular target: Neu5Ac(a2-3)Gal(b1-4)GlcNAc(b1-2)Man(a1-3)[Neu5Ac(a2-3)Gal(b1-4)GlcNAc(b1-2)Man(a1-6)]Man(b1-4)GlcNAc(b1-4)GlcNAc
# Summary of the method: as §1
# [5] = molecular target: Neu5Ac(a2-3)Gal(b1-4)GlcNAc(b1-2)Man(a1-3)[Neu5Ac(a2-3)Gal(b1-4)GlcNAc(b1-2)Man(a1-6)]Man(b1-4)GlcNAc(b1-4)[Fuc(a1-6)]GlcNAc
# Summary of the method: as §1
# [6] = molecular target: Neu5Ac(a2-3)Gal(b1-4)GlcNAc(b1-2)Man(a1-3)[Neu5Ac(a2-6)Gal(b1-4)GlcNAc(b1-2)Man(a1-6)]Man(b1-4)GlcNAc(b1-4)GlcNAc
# Summary of the method: as §1
# [7] = molecular target: Neu5Ac(a2-3)Gal(b1-4)GlcNAc(b1-2)[Neu5Ac(a2-3)Gal(b1-4)GlcNAc(b1-4)]Man(a1-3)[GlcNAc(b1-4)][Neu5Ac(a2-3)Gal(b1-4)GlcNAc(b1-2)[Neu5Ac(a2-3)Gal(b1-4)GlcNAc(b1-6)]Man(a1-6)]Man(b1-4)GlcNAc(b1-4)GlcNAc
# Summary of the method: as §1
# [8] = molecular target: Neu5Ac(a2-3)Gal(b1-4)GlcNAc(b1-2)[Neu5Ac(a2-3)Gal(b1-4)GlcNAc(b1-4)]Man(a1-3)[GlcNAc(b1-4)][Neu5Ac(a2-3)Gal(b1-4)GlcNAc(b1-4)Man(a1-6)]Man(b1-4)GlcNAc(b1-4)GlcNAc
# Summary of the method: as §1
# [9] = molecular target: Neu5Ac(a2-3)Gal(b1-4)GlcNAc(b1-2)[Neu5Ac(a2-3)Gal(b1-4)GlcNAc(b1-6)]Man(a1-6)[Neu5Ac(a2-3)Gal(b1-4)GlcNAc(b1-2)Man(a1-3)]Man(b1-4)GlcNAc(b1-4)GlcNAc
# Summary of the method: as §1
# [10] = molecular target: Neu5Ac(a2-3)Gal(b1-4)GlcNAc(b1-2)[Neu5Ac(a2-3)Gal(b1-4)GlcNAc(b1-6)]Man(a1-6)[Neu5Ac(a2-3)Gal(b1-4)GlcNAc(b1-2)Man(a1-3)][GlcNAc(b1-4)]Man(b1-4)GlcNAc(b1-4)GlcNAc
# Summary of the method: as §1
# [11] = molecular target: Neu5Ac(a2-3)Gal(b1-4)GlcNAc(b1-3)Gal
# Summary of the method: as §1
# [12] = molecular target: Neu5Ac(a2-3)Gal(b1-4)GlcNAc(b1-3)Gal(b1-3)GlcNAc
# Summary of the method: as §1
# [13] = molecular target: Neu5Ac(a2-3)Gal(b1-4)GlcNAc(b1-3)Gal(b1-4)GlcNAc
# Summary of the method: as §1
# [14] = molecular target: Neu5Ac(a2-3)Gal(b1-4)GlcNAc(b1-3)Gal(b1-4)GlcNAc(b1-2)Man(a1-3)[Neu5Ac(a2-3)Gal(b1-4)GlcNAc(b1-3)Gal(b1-4)GlcNAc(b1-2)Man(a1-6)]Man(b1-4)GlcNAc(b1-4)GlcNAc
# Summary of the method: as §1
# [15] = molecular target: Neu5Ac(a2-3)Gal(b1-4)GlcNAc(b1-3)Gal(b1-4)GlcNAc(b1-3)Gal(b1-4)GlcNAc
# Summary of the method: as §1
# [16] = molecular target: Neu5Ac(a2-3)Gal(b1-4)GlcNAc(b1-3)Gal(b1-4)GlcNAc(b1-3)Gal(b1-4)GlcNAc(b1-2)Man(a1-3)[Neu5Ac(a2-3)Gal(b1-4)GlcNAc(b1-3)Gal(b1-4)GlcNAc(b1-3)Gal(b1-4)GlcNAc(b1-2)Man(a1-6)]GalNAc
# Summary of the method: as §1
# [17] = molecular target: Neu5Ac(a2-3)Gal(b1-4)GlcNAc(b1-3)Gal(b1-4)GlcNAc(b1-3)GalNAc
# Summary of the method: as §1
# [18] = molecular target: Neu5Ac(a2-3)Gal(b1-4)GlcNAc(b1-3)Gal(b1-4)GlcNAc(b1-3)[Neu5Ac(a2-3)Gal(b1-4)GlcNAc(b1-3)Gal(b1-4)GlcNAc(b1-6)]GalNAc
# Summary of the method: as §1
# [19] = molecular target: Neu5Ac(a2-3)Gal(b1-4)GlcNAc(b1-3)Gal(b1-4)GlcNAc(b1-6)[Gal(b1-3)]GalNAc
# Summary of the method: as §1
# [20] = molecular target: Neu5Ac(a2-3)Gal(b1-4)GlcNAc(b1-3)Gal(b1-4)[Fuc(a1-3)]GlcNAc
# Summary of the method: as §1
# [21] = molecular target: Neu5Ac(a2-3)Gal(b1-4)GlcNAc(b1-3)GalNAc
# Summary of the method: as §1
# [22] = molecular target: Neu5Ac(a2-3)Gal(b1-4)GlcNAc(b1-3)[Neu5Ac(a2-3)Gal(b1-4)GlcNAc(b1-6)]GalNAc
# Summary of the method: as §1
# [23] = molecular target: Neu5Ac(a2-3)Gal(b1-4)GlcNAc(b1-6)GalNAc
# Summary of the method: as §1
# [24] = molecular target: Neu5Ac(a2-3)Gal(b1-4)GlcNAc(b1-6)[Gal(b1-3)]GalNAc
# Summary of the method: as §1
# [25] = molecular target: Neu5Ac(a2-3)Gal(b1-4)GlcNAc(b1-6)[Neu5Ac(a2-3)Gal(b1-3)]GalNAc
# Summary of the method: as §1
# [26] = molecular target: Neu5Ac(a2-3)Gal(b1-4)GlcNAc6S
# Summary of the method: as §1
# [27] = molecular target: Neu5Ac(a2-3)Gal(b1-4)[Fuc(a1-3)]GlcNAc
# Summary of the method: as §1
# [28] = molecular target: Neu5Ac(a2-3)Gal(b1-4)[Fuc(a1-3)]GlcNAc(b1-2)Man
# Summary of the method: as §1
# [29] = molecular target: Neu5Ac(a2-3)Gal(b1-4)[Fuc(a1-3)]GlcNAc(b1-3)Gal
# Summary of the method: as §1
# [30] = molecular target: Neu5Ac(a2-3)Gal(b1-4)[Fuc(a1-3)]GlcNAc(b1-3)Gal(b1-4)GlcNAc
# Summary of the method: as §1
# [31] = molecular target: Neu5Ac(a2-3)Gal(b1-4)[Fuc(a1-3)]GlcNAc(b1-3)Gal(b1-4)[Fuc(a1-3)]GlcNAc(b1-3)Gal(b1-4)[Fuc(a1-3)]GlcNAc
# Summary of the method: as §1
# [32] = molecular target: Neu5Ac(a2-3)Gal(b1-4)[Fuc(a1-3)]GlcNAc(b1-3)GalNAc
# Summary of the method: as §1
# [33] = molecular target: Neu5Ac(a2-3)Gal(b1-4)[Fuc(a1-3)]GlcNAc(b1-6)[Gal(b1-3)]GalNAc
# Summary of the method: as §1
# [34] = molecular target: Neu5Ac(a2-3)Gal(b1-4)[Fuc(a1-3)]GlcNAc(b1-6)[Neu5Ac(a2-3)Gal(b1-3)]GalNAc
# Summary of the method: as §1
# [35] = molecular target: Neu5Ac(a2-3)Gal(b1-4)[Fuc(a1-3)]GlcNAc6S
# Summary of the method: as §1
# [36] = molecular target: Neu5Ac(a2-3)Gal6S(b1-4)GlcNAc
# Summary of the method: as §1
# [37] = molecular target: Neu5Ac(a2-3)Gal6S(b1-4)[Fuc(a1-3)]GlcNAc
# Summary of the method: as §1
# [38] = molecular target: Neu5Ac(a2-3)GalNAc
# Summary of the method: as §1
binder,measurement,setting,value
Pbx1CASH domain (Cryptococcus neoformans) (protein) MDETKPLWGNPRADGISLACKDSIVERNVVYDATDGAIVLFGSAGSTVKNNHVYARTRVILGGINLVDYEPWDGDYTNVKVHHNHLYALGRYFKVGIVIGPASWSDDTESVVHSASVTDNEFSGGYWGYGIVVASAKNFEVLRNKVIWDGEQGVARFSGVPGS,glycan array binding signal (z-score),[1],-0.811
same,glycan array binding signal (z-score),[2],2.55
same,glycan array binding signal (z-score),[3],0.499
same,glycan array binding signal (z-score),[4],-0.62
same,glycan array binding signal (z-score),[5],-0.325
same,glycan array binding signal (z-score),[6],0.108
same,glycan array binding signal (z-score),[7],1.21
same,glycan array binding signal (z-score),[8],1.05
same,glycan array binding signal (z-score),[9],-0.136
same,glycan array binding signal (z-score),[10],0.771
same,glycan array binding signal (z-score),[11],0.289
same,glycan array binding signal (z-score),[12],-0.104
same,glycan array binding signal (z-score),[13],-0.499
same,glycan array binding signal (z-score),[14],2.42
same,glycan array binding signal (z-score),[15],-0.198
same,glycan array binding signal (z-score),[16],3.29
same,glycan array binding signal (z-score),[17],0.774
same,glycan array binding signal (z-score),[18],-0.158
same,glycan array binding signal (z-score),[19],1
same,glycan array binding signal (z-score),[20],-0.205
same,glycan array binding signal (z-score),[21],-0.184
same,glycan array binding signal (z-score),[22],-0.296
same,glycan array binding signal (z-score),[23],0.564
same,glycan array binding signal (z-score),[24],-0.539
same,glycan array binding signal (z-score),[25],0.825
same,glycan array binding signal (z-score),[26],-0.985
same,glycan array binding signal (z-score),[27],-1.03
same,glycan array binding signal (z-score),[28],0.83
same,glycan array binding signal (z-score),[29],-0.746
same,glycan array binding signal (z-score),[30],-0.436
same,glycan array binding signal (z-score),[31],-0.748
same,glycan array binding signal (z-score),[32],0.771
same,glycan array binding signal (z-score),[33],-0.356
same,glycan array binding signal (z-score),[34],-0.516
same,glycan array binding signal (z-score),[35],-0.751
same,glycan array binding signal (z-score),[36],-0.331
same,glycan array binding signal (z-score),[37],-0.838
same,glycan array binding signal (z-score),[38],-0.804

# A run of entries from the list above, for reference:
binder,measurement,setting,value
Pbx1CASH domain (Cryptococcus neoformans) (protein) MDETKPLWGNPRADGISLACKDSIVERNVVYDATDGAIVLFGSAGSTVKNNHVYARTRVILGGINLVDYEPWDGDYTNVKVHHNHLYALGRYFKVGIVIGPASWSDDTESVVHSASVTDNEFSGGYWGYGIVVASAKNFEVLRNKVIWDGEQGVARFSGVPGS,glycan array binding signal (z-score),[23],0.564
same,glycan array binding signal (z-score),[24],-0.539
same,glycan array binding signal (z-score),[25],0.825
same,glycan array binding signal (z-score),[26],-0.985
same,glycan array binding signal (z-score),[27],-1.03
same,glycan array binding signal (z-score),[28],0.83
same,glycan array binding signal (z-score),[29],-0.746
same,glycan array binding signal (z-score),[30],-0.436
same,glycan array binding signal (z-score),[31],-0.748
same,glycan array binding signal (z-score),[32],0.771
